Measurements reported in PubChem BioAssay AID1508597 (Cure First, 2020).

Purpose: 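Knock-downs altering ovarian cancer cell survival with or without PARP inhibitor rucaparib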 (primary screen)
System: human ovarian carcinoma lines grown from tumours: OCI-P5x (papillary serous) and OCI-C5x (clear cell)
Reagents: siRNA pool against human genes, 1.25 pmol siRNA per well
Time to read-out: 72 h or 96 h, depending on the cell culture
Challenge: rucaparib 20 µM (about IC30) or vehicle, present until read-out
Measurement: 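ATP luminescence measured at 72 or 96 h according to the culture, then normalised and expressed as percent viability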
Direction: viability, normalised: higher = more viable cells remaining
Active means: 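Active when normalised viability falls below 80 percent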
Meaning of the calls: active = viability under 80%; inactive = viability 80% or more
The deposit covers about 2,100 reagents; shown is a random part of them. 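Calls flag viability under 80% in either arm, not effects specific to rucaparib; the reference for percent is not stated.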 Entries without a mark were called inactive. Not stated in the record: the 100% reference.

gene symbol	rucaparib or vehicle	cell line	technical replicate	viability, normalised (%)
SS18L1	Rucaparib	OCI-C5x (clear cell)	1	63.3 (active)
SS18L1	Rucaparib	OCI-C5x (clear cell)	2	67.3 (active)
SS18L1	Rucaparib	OCI-C5x (clear cell)	3	61.3 (active)
SS18L1	Rucaparib	OCI-P5x (serous)	1	45.5 (active)
SS18L1	Rucaparib	OCI-P5x (serous)	2	45.6 (active)
SS18L1	Rucaparib	OCI-P5x (serous)	3	37.8 (active)
SS18L1	Vehicle	OCI-C5x (clear cell)	1	70.1 (active)
SS18L1	Vehicle	OCI-C5x (clear cell)	2	76.3 (active)
SS18L1	Vehicle	OCI-C5x (clear cell)	3	44.5 (active)
SS18L1	Vehicle	OCI-P5x (serous)	1	59.6 (active)
SS18L1	Vehicle	OCI-P5x (serous)	2	51 (active)
SS18L1	Vehicle	OCI-P5x (serous)	3	64.1 (active)

Part of the list above, reformatted:
SS18L1, rucaparib or vehicle Vehicle, cell line OCI-C5x (clear cell), technical replicate 1 | viability, normalised (%): 70.1 (active)
SS18L1, rucaparib or vehicle Vehicle, cell line OCI-C5x (clear cell), technical replicate 2 | viability, normalised (%): 76.3 (active)

The list goes on.
gene symbol	rucaparib or vehicle	cell line	technical replicate	viability, normalised (%)
MAP3K12	Rucaparib	OCI-C5x (clear cell)	1	61 (active)
MAP3K12	Rucaparib	OCI-C5x (clear cell)	2	61.9 (active)
MAP3K12	Rucaparib	OCI-C5x (clear cell)	3	53.5 (active)
MAP3K12	Rucaparib	OCI-P5x (serous)	1	71.5 (active)
MAP3K12	Rucaparib	OCI-P5x (serous)	2	65.4 (active)
MAP3K12	Rucaparib	OCI-P5x (serous)	3	68.3 (active)
MAP3K12	Vehicle	OCI-C5x (clear cell)	1	75.2 (active)
MAP3K12	Vehicle	OCI-C5x (clear cell)	2	68.1 (active)
MAP3K12	Vehicle	OCI-C5x (clear cell)	3	80.1
MAP3K12	Vehicle	OCI-P5x (serous)	1	95.8
MAP3K12	Vehicle	OCI-P5x (serous)	2	83.5
MAP3K12	Vehicle	OCI-P5x (serous)	3	88.9
